Test results: paper PMC3930751
These are yes or no findings as the source states them, for the method shown. Some binding calls cover weakened binding; strength is not graded here.

Columns and labels:
[1] = molecular target: T1, Gal4 DNA binding domain-SENP1 hybrid (pCMVBD-SENP1), sentrin/SUMO-specific protease 1 (human) (UniProt Q9P0U3); assay: two-hybrid; mammalian two-hybrid in CHO-K1 cells; bait pCMVBD-SENP1 or 2, prey pCMVAD-VDRLBD, Gal4 luciferase reporter with pRL-TK control; cells incubated with 1,25D (10^-8 M) for 24 hours
T1 sequence: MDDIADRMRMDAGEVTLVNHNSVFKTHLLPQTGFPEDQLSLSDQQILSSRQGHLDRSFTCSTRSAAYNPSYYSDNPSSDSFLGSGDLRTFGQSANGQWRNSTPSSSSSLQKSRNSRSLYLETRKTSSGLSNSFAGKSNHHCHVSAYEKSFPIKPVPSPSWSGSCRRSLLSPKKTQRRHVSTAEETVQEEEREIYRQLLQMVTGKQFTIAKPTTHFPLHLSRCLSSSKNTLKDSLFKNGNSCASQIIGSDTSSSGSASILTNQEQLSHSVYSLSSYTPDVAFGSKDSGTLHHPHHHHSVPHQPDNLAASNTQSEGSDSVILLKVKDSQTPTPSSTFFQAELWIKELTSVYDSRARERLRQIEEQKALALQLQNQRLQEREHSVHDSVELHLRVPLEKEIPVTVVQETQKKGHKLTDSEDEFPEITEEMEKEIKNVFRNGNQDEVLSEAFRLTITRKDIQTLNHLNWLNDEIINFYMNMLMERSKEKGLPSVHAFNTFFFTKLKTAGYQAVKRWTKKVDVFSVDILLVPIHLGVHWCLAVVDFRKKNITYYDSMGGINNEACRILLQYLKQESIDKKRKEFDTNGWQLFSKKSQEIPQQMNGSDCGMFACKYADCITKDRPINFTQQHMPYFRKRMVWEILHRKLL

[2] = molecular target: T2, Gal4 DNA binding domain-SENP2 hybrid (pCMVBD-SENP2), sentrin/SUMO-specific protease 2 (human) (UniProt Q9HC62); assay: as above
T2 sequence: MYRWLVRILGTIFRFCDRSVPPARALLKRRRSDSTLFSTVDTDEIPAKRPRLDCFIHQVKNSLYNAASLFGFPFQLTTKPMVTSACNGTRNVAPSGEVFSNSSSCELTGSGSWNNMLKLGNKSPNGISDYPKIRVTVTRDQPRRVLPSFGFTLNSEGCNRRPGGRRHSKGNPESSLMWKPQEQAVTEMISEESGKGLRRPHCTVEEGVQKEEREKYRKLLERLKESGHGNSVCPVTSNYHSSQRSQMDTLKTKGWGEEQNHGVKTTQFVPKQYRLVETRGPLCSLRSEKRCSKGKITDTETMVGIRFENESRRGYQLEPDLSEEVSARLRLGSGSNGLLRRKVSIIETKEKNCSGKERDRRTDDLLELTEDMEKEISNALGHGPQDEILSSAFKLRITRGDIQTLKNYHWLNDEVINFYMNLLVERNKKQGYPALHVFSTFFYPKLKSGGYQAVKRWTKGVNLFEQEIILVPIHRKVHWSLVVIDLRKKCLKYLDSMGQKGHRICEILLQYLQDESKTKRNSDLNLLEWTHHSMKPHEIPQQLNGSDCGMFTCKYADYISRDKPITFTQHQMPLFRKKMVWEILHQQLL

- binding [1]: binds
- binding [2]: binds
B1: Vitamin D receptor ligand binding domain prey hybrid (pCMVAD-VDRLBD) (domain or fragment, UniProt P11473 96-427)
chain: TDEEVQRKREMILKRKEEEALKDSLRPKLSEEQQRIIAILLDAHHKTYDPTYSDFCQFRPPVRVNDGGGSHPSRPNSRHTPSFSGDSSSSCSDHCITSSDMMDSSSFSNLDLSEEDSDDPSVTLELSQLSMLPHLADLVSYSIQKVIGFAKMIPGFRDLTSEDQIVLLKSSAIEVIMLRSNESFTMDDMSWTCGNQDYKYRVSDVTKAGHSLELIEPLIKFQVGLKKLNLHEEEHVLLMAICIVSPDRPGVQDAALIEAIQDRLSNTLQTYIRCRHPPPGSHLLYAKMIQKLADLRSLNEEHSKQYRCLSFQPECSMKLTPLVLEVFGNEIS
